{
  "sequences": {"note": "By UniProt entry, the sequences of proteins in these tests, tags left out. Where a name states a change or a piece, a line headed by the entry shows the natural chain unless it says otherwise.", "UniProt P51450": "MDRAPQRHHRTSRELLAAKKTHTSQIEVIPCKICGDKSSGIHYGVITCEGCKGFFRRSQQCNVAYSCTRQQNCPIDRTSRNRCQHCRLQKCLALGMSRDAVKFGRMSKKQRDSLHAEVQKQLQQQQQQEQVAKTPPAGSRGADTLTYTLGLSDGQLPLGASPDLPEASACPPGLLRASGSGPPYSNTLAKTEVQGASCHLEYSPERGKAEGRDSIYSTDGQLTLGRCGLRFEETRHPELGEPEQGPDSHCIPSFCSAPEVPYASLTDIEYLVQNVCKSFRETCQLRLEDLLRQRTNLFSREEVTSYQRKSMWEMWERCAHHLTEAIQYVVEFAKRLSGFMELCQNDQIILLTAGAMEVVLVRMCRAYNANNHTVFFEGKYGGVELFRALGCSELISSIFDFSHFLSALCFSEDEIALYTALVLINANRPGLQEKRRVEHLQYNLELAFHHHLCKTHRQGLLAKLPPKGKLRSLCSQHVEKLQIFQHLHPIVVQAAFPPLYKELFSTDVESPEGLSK"},
  "source": "PubChem BioAssay AID2551",
  "about": "(National Center for Advancing Translational Sciences (NCATS), 2010)",
  "note": "The campaign covered roughly 310,000 compounds. About 17,000 (5.5%) were called active. The inconclusive results got no clear call from the source; some entries with a clear call stand among them for comparison. The call rests on the fitted dose curve; in most records, active means well fitted inhibition curve with a large enough effect; inconclusive means small, poorly fitted or top-dose-only effect, or effect the other way; inactive means no such curve, though single readings can be large or run the other way. Where the call is inconclusive, the potency comes from a doubtful curve fit. On the % scale 0 is the no-effect control and ±100 the full control effect; potency means the concentration at half of the fitted maximal effect.",
  "data": [
    {"target": "Nuclear receptor ROR-gamma (Mus musculus) (UniProt P51450)", "assay": "qHTS for inhibitors of ROR gamma transcriptional activity; further: nearly all actives have a fitted effect of over 60% in size", "settings": "Drosophila S2 Gal4-RORgamma UAS-luciferase reporter, 20 h; activity change, negative = inhibition: at 53.6 µM (top of the series)", "method_in_brief": "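Using a luciferase readout, inhibitors were identified by reduced reporter activity in Drosophila cells coexpressing a copper-inducible Gal4–ROR gamma fusion and UAS-driven Photinus luciferase, incubated 20 hr after 700 uM copper sulfate.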", "values": [
      {"smiles": "Cn1c(=O)c(C(=O)Nc2ncccc2O)c(O)c2ccccc21", "Potency": "inconclusive: 12.6 µM [inhibitor, partial curve]"},
      {"smiles": "O=S(=O)(c1ccc(Oc2ncnc3scc(-c4ccccc4)c23)cc1)N1CCOCC1", "Potency": "inconclusive: 31.6 µM [activator, single point]"},
      {"smiles": "Cn1c(=O)n(Cc2ccc(F)cc2)c(=O)c2c1nc1n2CCN1Cc1ccco1", "Potency": "inconclusive: 8.91 µM [activator, partial curve]"},
      {"smiles": "O=C(NCc1ccc(F)cc1)c1ccccc1OCc1ccccc1", "activity change, negative = inhibition": "inactive: 32.8%"},
      {"smiles": "N#Cc1cccc(C#N)c1N1CCC(C#N)CC1", "Potency": "inconclusive: 15.8 µM [inhibitor, single point]"},
      {"smiles": "COc1ccccc1OCCOc1ccc(/C=C2\\C(=N)N3N=C(C)SC3=NC2=O)cc1", "Potency": "inconclusive: 22.4 µM [inhibitor, partial curve, poor fit]"},
      {"smiles": "CCOC(=O)CON1C(=O)C(=O)N(OCC(=O)OCC)C2CCCCC21", "note": "(stereo not given)", "activity change, negative = inhibition": "inactive: 1.26%"},
      {"smiles": "CC(C)(C)c1ccc(NC(=O)CNC2CCCc3ccccc32)cc1", "note": "(stereo not given)", "Potency": "inconclusive: 35.5 µM [inhibitor, single point]"},
      {"smiles": "COc1ccc(-c2cn(-c3ccc(C)cc3C)c(=S)[nH]2)cc1OC", "Potency": "inconclusive: 0.631 µM [inhibitor, full curve]"},
      {"smiles": "Cc1cccc(NC(=O)CCS(=O)(=O)c2ccccc2)c1", "activity change, negative = inhibition": "inactive: 13.3%"},
      {"smiles": "Brc1ccc(-c2cn3nc4c(nc3n2)CCCC4)cc1", "Potency": "inconclusive: 20 µM [inhibitor, single point]"},
      {"smiles": "Cc1c[nH]c(=O)c([N+](=O)[O-])c1", "activity change, negative = inhibition": "inactive: -9.19%"},
      {"smiles": "CC(=O)NC1C(O)C[C@@](O)(C(=O)O)OC1[C@@H](O)C(O)CO", "note": "(stereo not given in full)", "activity change, negative = inhibition": "inactive: 8.41%"},
      {"smiles": "Cc1cccn2cc(CSc3nnc(Nc4ccc(C(C)C)cc4)s3)nc12", "Potency": "inconclusive: 20 µM [inhibitor, single point]"},
      {"smiles": "Cc1cccc(OCc2nnc(SCC(=O)Nc3cccc(C(=O)N4CCOCC4)c3)n2C)c1C", "Potency": "inconclusive: 14.1 µM [activator, partial curve]"},
      {"smiles": "CCOc1ccc(C(=O)Nc2cccc(C(=O)O)c2)cc1Cl", "Potency": "active: 6.31 µM"},
      {"smiles": "Cc1cncn1CCc1nc2c3ccccc3nc(SCC(=O)Nc3cccc(Cl)c3)n2n1", "Potency": "inconclusive: 25.1 µM [inhibitor, single point]"},
      {"smiles": "O=c1[nH]c2cc3c(cc2cc1CN(Cc1cccs1)Cc1nnnn1Cc1ccco1)OCCO3", "Potency": "inconclusive: 11.2 µM [activator, partial curve]"},
      {"smiles": "CCCCn1c2ccc(F)cc2c2nnc(NN)nc21", "Potency": "inconclusive: 15.8 µM [inhibitor, single point]"},
      {"smiles": "CCCCN(CC)CCNC(=O)Cn1cc2c(n1)-c1c(oc(C(=O)N3CCCC3)c1C)CC2", "Potency": "active: 15.8 µM"}
    ]}
  ]
}
